From publication PMC11546247 come the findings set out here.

No constants are given. Whether binding was seen depends on the method and setting. In cells and extracts the contact can be indirect. A result given as binding can be weak or reduced; the word gives no strength.

In the test the target is glutathione peroxidase 4. As to the kind of experiment: co-IP; HEK-293T cells transiently transfected with indicated plasmids for 36 h; lysed in RIPA buffer with 1% PMSF; supernatant with 50 uL protein G-agarose beads and 1 ug antibody, 4 h at 4 °C; washed three times with RIPA buffer; Western blot. For orientation: A western blot detects proteins with antibodies after separation by electrophoresis.

B1: malate dehydrogenase 2 (enzyme, UniProt P40926 25-338)
chain: AKVAVLGASGGIGQPLSLLLKNSPLVSRLTLYDIAHTPGVAADLSHIETKAAVKGYLGPEQLPDCLKGCDVVVIPAGVPRKPGMTRDDLFNTNATIVATLTAACAQHCPEAMICVIANPVNSTIPITAEVFKKHGVYNPNKIFGVTTLDIVRANTFVAELKGLDPARVNVPVIGGHAGKTIIPLISQCTPKVDFPQDQLTALTGRIQEAGTEVVKAKAGAGSATLSMAYAGARFVFSLVDAMNGKEGVVECSFVKSQETECTYFSTPLLLGKKGIEKNLGIGKVSSFEEKMISDAIPELKASIKKGEDFVKTLK
For B1, the binding result is recorded as “binds”.
